Data on three molecules can be found in article doi:10.1101/519199.

Assay [1] deals with OsANN4 (pGBKT7-OsANN4) (rice (Oryza sativa subsp. japonica cv. Nipponbare)). Nature of the assay: two-hybrid.
Assay [2] has as its target OsANN4(S13A)-Cluc (rice (Oryza sativa subsp. japonica cv. Nipponbare)). The assay is described as follows: split reporter.
Assay [3] addresses OsANN4-Cluc (rice (Oryza sativa subsp. japonica cv. Nipponbare)). Nature of the assay: split reporter.
The target of assay [4] is OsANN4-GST (rice (Oryza sativa subsp. japonica cv. Nipponbare)). Nature of the assay: pull-down.

Results are given in words; binding and its absence hold for the method and conditions named. Binding can be weak; no strength is given. For some of these results: Where a sequence is shown, tags or fusion partners need not be part of it. For some of these results: In cells and extracts the contact can be indirect.

B1: OsCDPK24 (pGADT7-OsCDPK24) (enzyme, UniProt Q53P85 1-513)
chain: MQPDPSGSGGDGNANAKAKLAPPPVTAAGGRPVSVLPHKTANVRDHYRIGKKLGQGQFGTTYLCVDKASGGEFACKSIPKRKLLCREDYEDVWREIQIMHHLSEHPNVVRIRGAYEDALFVHIVMELCAGGELFDRIVAKGHYTERAAAQLIRTIVAVVEGCHSLGVMHRDLKPENFLFASAAEDAPLKATDFGLSMFYKPGDKFSDVVGSPYYVAPEVLQKCYGPESDVWSAGVILYILLCGVPPFWAETEAGIFRQILRGKLDFESEPWPSISDSAKDLVRNMLCRDPTKRLTAHEVLCHPWIVDDAVAPDKPIDSAVLSRLKHFSAMNKLKKMALRVIAESLSEEEIGGLKELFKMIDTDDSGTITFDELKEGLKRVGSELTEHEIQALMEAADIDNSGTIDYGEFIAATLHMNKLEREENLVSAFSFFDKDGSGFITIDELSQACREFGLDDLHLEDMIKDVDQNNDGQIDYSEFTAMMRKGNAGGAGRRTMRNSLQLNLGEILNPSNS
Turning to B1, in assay [1], the binding entry was “binds”.

B2: OsCDPK24-Nluc (enzyme, UniProt Q53P85 1-513)
chain: B1 chain
For the molecule B2, the binding entry in assay [2] and in assay [3] was “binds” each time.

B3: OsCDPK24-His (enzyme, UniProt Q53P85 1-513)
chain: B1 chain
For the molecule B3, the binding result in assay [4] is “binds”.
